Measurements from PubChem BioAssay AID540276 (National Center for Advancing Translational Sciences (NCATS), 2011).
Several values for one entry are separate records, joined by “and”; a condition that tells them apart may be missing. Equal entries are not always repeated. Hit rate of the full screen: of about 300,000 compounds, about 5,400 (1.8%) were called active. Inconclusive results, whose numbers are uncertain, are shown with a selection of clear calls. Calls come from the whole dose curve; tested in HEK293 cells. Potencies beside an inconclusive call are fits to weak or partial responses and may not hold up. Some structures have more than one record in an assay (separate samples or runs), and their calls can disagree.

Experiment: qHTS for inhibitors of binding or entry into cells for Marburg Virus
Conditions: Marburg virus pseudotyped entry inhibition, cell reporter; activity change, negative = inhibition: at 37.8 µM (top of the series) unless noted
% is set by controls: 0 for no effect and ±100 for the full control effect; potency is the fitted concentration of half-maximal effect.

Compound | Potency | activity change, negative = inhibition
O=C(Nc1cccc(Cl)c1)OCc1cncs1 | inconclusive: 2.24 µM [activator, partial curve, poor fit] | 
O=C(Cc1cccs1)N(Cc1ccco1)C1(C(=O)NC2CCCC2)CCCCC1 | inconclusive: 0.708 µM [inhibitor, partial curve, poor fit] | 
CCC(=O)Nc1ccc(CC)cc1-c1nc2ccccc2n(Cc2ccccc2)c1=O |  | inactive: -2.64% [at 46.1 µM]
Cc1ccc(N2CC(C(=O)N(C)CC(=O)Nc3ccc(Cl)c(C(F)(F)F)c3)CC2=O)cc1 (configuration not stated) | inconclusive: 28.2 µM [inhibitor, single point] | 
Cc1ccc(NC(=O)c2ccc(CSc3ccccn3)cc2)cc1 | inconclusive: 28.2 µM [inhibitor, single point] | 
Cc1ccc(Cn2nnnc2CN2CCC(O)(c3ccccc3F)CC2)cc1 | inconclusive: 29.1 µM [inhibitor, single point] | 
COc1ccc(C(=O)c2oc3ccccc3c2NC(=O)COc2cccc(C)c2C)cc1 | inconclusive: 12.6 µM [activator, partial curve, poor fit] | 
CCc1nc2ccccc2c(C(=O)OCC(=O)C(C)(C)C)c1C |  | inactive: 11.4% [at 46.1 µM]
CC(CN(C)Cc1ccccc1)OC(=O)c1ccc2c(c1)OCCO2 (configuration not stated) | inconclusive: 23.1 µM [activator, single point] | 
COc1cc(/C=N/n2nnnc2Nc2ccccc2)cc(OC)c1OC | inconclusive: 12.6 µM [inhibitor, single point] | 
CCOC(=O)c1[nH]c2ccc(Br)cc2c1NC(=O)CCN1CCCC(C)(C)C1 | inconclusive: 35.5 µM [inhibitor, partial curve, poor fit] | 
CCOC(=O)c1cn[nH]c1NC(=S)Nc1ccc(OC)cc1 | inconclusive: 7.08 µM [activator, partial curve, poor fit] | 
Cc1c(Cc2ccccc2)c(=O)oc2c(C)c(OCC(=O)Nc3ccc(C#N)cc3)ccc12 | inconclusive: 3.55 µM [inhibitor, single point] | 
Cc1cc2c(cc(C(=O)O)n2C)s1 | inconclusive: 10 µM [activator, partial curve, poor fit] | 
COc1ccc(-c2c3c(nc4sc5c(=O)[nH]c(C)nc5c24)CCC3)cc1 | inconclusive: 2.24 µM [inhibitor, full curve] | 
Cc1ccccc1C(=O)N(Cc1nc(-c2ccc(Cl)cc2)no1)C(C)C |  | inactive: -27.2% [at 46.1 µM]
CC(=O)NC12CC3CC(C1)CC(C(=O)N(C)CC(=O)Nc1ccccc1Cl)(C3)C2 |  | inactive: 0.495%
CCOc1cccc2cc(C(=O)Oc3ccc(OC)cc3)c(=O)oc12 |  | inactive: -21.1%
O=C(Cc1ccc(S(=O)(=O)N2CCCC2)s1)N1CCOCC1 | inconclusive: 17.8 µM [activator, single point] | 
CCN(CC)c1ccc(/C=N/NC(=O)c2ccco2)cc1 | active: 7.31 µM | 
COc1cccc(CNC(=O)CCNS(=O)(=O)c2ccc3[nH]c(=O)oc3c2)c1 | inconclusive: 15.8 µM [activator, single point] | 
Cc1ccc(-n2ncc(C(=O)NCCc3c[nH]c4ccccc34)c2C2CCN(C(=O)OC(C)(C)C)CC2)cc1C | inconclusive: 20 µM [inhibitor, partial curve, poor fit] | 
CCOC(=O)c1cc(C)sc1NC(=S)Nc1ccccc1 | inconclusive: 3.55 µM [inhibitor, partial curve, poor fit] | 

Compound | Potency | activity change, negative = inhibition
Cc1cc(C)n2nc(NCc3ccccc3)nc2n1 |  | inactive: 5.63%
CN1C(=O)/C(=C\C(=O)c2cccs2)c2ccccc21 | inconclusive: 14.1 µM [inhibitor, single point] | 
Cc1cc(C)nc(/N=C(\N)Nc2cccc([N+](=O)[O-])c2)n1 |  | inactive: 5.48%
CC(CNC(=O)CCc1nnc(CCC2CCCCC2)o1)c1ccccc1 (configuration not stated) | inconclusive: 5.01 µM [activator, single point] | 
Cc1ccc2cc(CN(c3ccccc3)S(=O)(=O)c3ccccc3)c(=O)[nH]c2c1 | inconclusive: 35.5 µM [inhibitor, single point] | 
Cc1cccc(N2C(=O)CC(NNc3nc4ccccc4s3)C2=O)c1 (configuration not stated) |  | inactive: 38.7%
Cc1ccccc1Cn1c2ccccc2c2cnn(CC(=O)NCCc3ccccc3)c(=O)c21 | inconclusive: 35.5 µM [activator, single point] | 
ClC(Cl)c1nnc(-c2ccccc2)c(-c2c[nH]c3ccccc23)n1 | inconclusive: 23.1 µM [activator, partial curve, poor fit] | 
Cc1ccc(NC(=S)NCC2CCCO2)cc1 (configuration not stated) | inconclusive: 5.01 µM [activator, partial curve, poor fit] | 
CCCCS(=O)(=O)/C=C\C1C2C=CC(C2)C1S(=O)(=O)CCCC (configuration not stated) |  | inactive: 0.58%
COc1ccc(OC)c(N2C(=O)NC(=O)/C(=C\c3ccc([N+](=O)[O-])s3)C2=O)c1 | inconclusive: 35.5 µM [inhibitor, single point] | 
C/C(N)=C(/C#N)C(=O)COC(=O)c1cc2c(s1)CCCC2 |  | inactive: 20.8% [at 46.1 µM]
CCN(CC(=O)Nc1ccc2c(c1)OCCO2)C(=O)CC(NC(C)=O)c1ccccc1 (configuration not stated) |  | inactive: -2.09%
O=[N+]([O-])c1cc(C(F)(F)F)cc([N+](=O)[O-])c1NCCCNc1ccc([N+](=O)[O-])c2cccnc12 | inconclusive: 3.55 µM [inhibitor, single point] | 
COc1cc(-c2noc(CCC(=O)Nc3cc(C)ccc3C)n2)cc(OC)c1OC |  | inactive: -11.9% [at 46.1 µM]
COc1cccc(C(C(=O)NC(C)(C)C)N(C(=O)CCC(=O)Nc2cc(C)on2)C2CC2)c1OC (configuration not stated) | inactive | 
CC(C)Cn1c(=O)c(C(=O)NCc2ccccn2)c(O)c2ccccc21 | inconclusive: 10 µM [inhibitor, partial curve, poor fit] | 
COc1ccc(-c2c(C)nn(-c3ccccc3)c2N)cc1 |  | inactive: 4.01%
CC(Oc1ccc2oc(-c3ccccc3)c(C(=O)O)c2c1)C(=O)O (configuration not stated) |  | inactive: 7.29%
CCOC(=O)c1c(CN2CCN(CCO)CC2)n(C)c2cc(Br)c(OC)cc12 | inactive and active: 8.2 µM | 
Cc1ccc(S(=O)(=O)c2c(Nc3cc(F)ccc3F)sc(C(=O)c3ccc(F)cc3)c2N)cc1 | inconclusive: 15.8 µM [inhibitor, single point] | 
O=C(CCN1CCc2ccccc21)c1ccc2c(c1)OCCO2 | inconclusive: 35.5 µM [inhibitor, single point] | 
CCCC1CCc2c(sc(N)c2C(N)=O)C1 (configuration not stated) | inconclusive: 2.82 µM [inhibitor, partial curve, poor fit] | 

Compound | Potency | activity change, negative = inhibition
O=C(COC(=O)[C@H](Cc1ccccc1)NC(=O)c1cccs1)Nc1c(Cl)cccc1Cl | inconclusive: 11.2 µM [activator, single point] | 
O=C1N=C(N2CCN(c3ccccc3)CC2)S/C1=C\c1cn[nH]c1-c1ccccc1 | inconclusive: 5.62 µM [inhibitor, single point] | 
CCc1ccccc1NC(=O)c1cc(-c2ccco2)on1 |  | inactive: 1.77% [at 46.1 µM]
Cc1ccc(N=CC2=C(O)CC(c3ccco3)CC2=O)cc1 (configuration not stated) | inconclusive: 0.0058 µM [inhibitor, full curve, poor fit] | 
CCCOc1ccc(-c2nc(SC)[nH]c(=O)c2C#N)cc1OC | inconclusive: 6.31 µM [inhibitor, partial curve, poor fit] | 
C(C#CCN1CCOCC1)#CCN1CCOCC1 |  | inactive: 3.44% [at 46.1 µM]
O=C(CNC(=O)c1ccccc1Cl)N/N=C/c1ccc2c(c1)OCO2 | inconclusive: 8.91 µM [inhibitor, partial curve, poor fit] | 
CCCc1nnc2c(N(C)S(=O)(=O)c3ccccc3)nc3ccccc3n12 | inconclusive: 35.5 µM [activator, partial curve, poor fit] | 
O=[N+]([O-])c1ccc(OCc2cccc(COc3ccc([N+](=O)[O-])cc3)n2)cc1 | inconclusive: 0.199 µM [inhibitor, full curve, poor fit] | 
COc1cc(C(C(=O)NCC2CCCO2)N(C(=O)Cn2nnc3ccccc32)c2ccc(C(C)=O)cc2)ccc1O (configuration not stated) | inconclusive: 35.5 µM [activator, single point] | 
COC(=O)c1ccc(CSc2nc3c(cnn3-c3ccc(C)cc3)c(=O)[nH]2)o1 |  | inactive: -7.31%
CCCCn1c(N)c(C(=O)NCc2cccs2)c2nc3ccccc3nc21 | inconclusive: 29.1 µM [inhibitor, single point] | 
O=C(COc1ccccc1C(=O)c1cnn(-c2ccccc2)c1)Nc1ccccc1 | inconclusive: 11.2 µM [inhibitor, partial curve, poor fit] | 
Cc1cccc(NC(=O)CSc2nncn2C)c1 |  | inactive: -4.5% [at 46.1 µM]
Cn1cnnc1SCC(=O)NCCc1ccccc1 | inconclusive: 29.1 µM [activator, single point] | 
C/C(=N\NC(=O)c1nnn(-c2nonc2N)c1-c1cccs1)c1cccnc1 | inconclusive: 0.562 µM [activator, partial curve, poor fit] | 
CCOC(=O)C1CCCCN1C(=O)CCc1nnc(-c2ccc3c(c2)OCO3)o1 (configuration not stated) | inconclusive: 8.91 µM [activator, partial curve] | 
Cc1ccc(C)[n+](CC(=O)c2ccc(-c3ccccc3)cc2)c1 | inconclusive: 35.5 µM [inhibitor, partial curve, poor fit] | 
Cc1ccc(NC(=O)Cc2csc(C)n2)c(C)c1 |  | inactive: 28.1% [at 46.1 µM]
CCCN(CCC)CCCNC(=O)Cn1ncc2c3ccccc3n(Cc3ccccc3)c2c1=O | inconclusive: 22.4 µM [inhibitor, single point] | 
CCCCN1C2=NCCCN2c2cc(C)c(C)cc21 | inconclusive: 17.8 µM [inhibitor, single point] | 

Among those listed so far, these contain two or more sulfur atoms.
Compound | Potency | activity change, negative = inhibition
O=C(Cc1ccc(S(=O)(=O)N2CCCC2)s1)N1CCOCC1 | inconclusive: 17.8 µM [activator, single point] | 
CCOC(=O)c1cc(C)sc1NC(=S)Nc1ccccc1 | inconclusive: 3.55 µM [inhibitor, partial curve, poor fit] | 
CCCCS(=O)(=O)/C=C\C1C2C=CC(C2)C1S(=O)(=O)CCCC (configuration not stated) |  | inactive: 0.58%
Cc1ccc(S(=O)(=O)c2c(Nc3cc(F)ccc3F)sc(C(=O)c3ccc(F)cc3)c2N)cc1 | inconclusive: 15.8 µM [inhibitor, single point] | 
